Laboratory results published in publication PMC8408249.
For at least one entry, the source does not settle the construct or the ends of the probe.

Tested on: MBP-LsAP2 (Lactuca sativa (cultivar S39))
Experiment: EMSA
Conditions: LightShift Chemiluminescent EMSA Kit per manufacturer's instructions; pH and temperature not stated; recombinant protein; protein details: MBP (N-terminal, pMal-c2X)

TTTACCTTTTTTTATTTTTATTTTTATTTTTTTCCTTTCTCATCTTTTTTTTCTTCCTTTCTTCTTTCC (double strand) [pLsKAN2-P3d probe]
binding result: binds
